Where “and” joins values, the source holds several entries; their conditions need not be identical. Identical values can stand only once. Hit rate of the full screen: of about 2,000 compounds, fewer than 10 were called active.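 How the source made its calls: active means growth inhibition of at least 75% in every replicate, which also brings the mean inhibition to 75% or more; inconclusive means mean inhibition 75% or more but some replicate under 75%; inactive means the rest.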 The list shows a part of the results.
Experiment: growth inhibition of PfHsp90-dependent yeast, primary screen, antimalarial PfHsp90 inhibitor project, S. cerevisiae, BacTiter-Glo luminescence (AID 504594);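 further: 0% = DMSO neutral control wells and 100% = 20 µM radicicol control wells; higher value means stronger growth inhibition because the sign is flipped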
Conditions: S. cerevisiae expressing PfHsp90, BacTiter-Glo growth, 48 h; at 9.4 µM; hits give high values

SMILES | growth inhibition
OC1CCCCC1N1CCC(c2ccccc2)CC1 (configuration not stated) | inactive: -20.2%
C[C@]12CC[C@@H](O)C[C@@H]1CC[C@@H]1[C@@H]2CC[C@]2(C)[C@@H](O)CC[C@@H]12 | inactive: 14.2%
COc1ccc2c(c1)CC1(CN2C)C(=O)NC(=O)N(CCc2ccccc2)C1=O (configuration not stated) | inactive: -14.4%
CC(=O)OC1C2CCC1C(N1CCCC1)CC2 (configuration not stated) | inactive: 11%
CC(Cc1ccccc1)NCC(=O)Nc1cc(N(C)C)nc2ccccc12 (configuration not stated) | inactive: -3.96%
C[C@H]1CCCC(=O)CCC/C=C/c2cc(O)cc(O)c2C(=O)O1 | inactive: -10.1%
Cc1ccc(-n2c(C)cc(/C=C3/C(=O)NC(=O)N(C)C3=O)c2C)cc1 | inactive: 2.59%
Cc1ccsc1C(=O)C1CCCN(Cc2cc3ccccc3o2)C1 (configuration not stated) | inactive: 8.42%
C#C[C@]1(O)CC[C@H]2[C@@H]3CCC4=CC(=O)CC[C@]4(C)[C@H]3CC[C@@]21C | inactive: 0.696%
CC(C)[N+](C)(CCC(C(N)=O)(c1ccccc1)c1ccccc1)C(C)C | inactive: -1.79%
C[C@@H]1O[C@@H](O[C@H]2C[C@@H](O)[C@]3(CO)[C@H]4[C@H](O)C[C@]5(C)[C@@H](C6COC(=O)C6)CC[C@]5(O)[C@@H]4CC[C@]3(O)C2)[C@H](O)[C@H](O)[C@H]1O (some centres not stated) | inactive: -0.00875%
O=c1[nH]c2ccccc2n1CCCN1CCC(n2c(=O)[nH]c3cc(Cl)ccc32)CC1 | inactive: -8.38%
O=C1CCCC2=C1C(c1cccnc1)Nc1ccccc1N2 (configuration not stated) | inactive: 1.04%
CC[C@@H]1C(=O)OC[C@@H]1Cc1cncn1C | inactive: 2.16% and inactive: 0.637%
C#CCN(C)C(C)Cc1ccccc1 (configuration not stated) | inactive: -11.2%
CC12CCC3C(CC=C4CC(O)CCC43C)C1C/C(=C\c1cccc(F)c1)C2=O (configuration not stated) | inactive: 9.19%
CC12CC[C@H]3[C@@H](CCC4(O)C[C@H](O)CCC34/C=N/NC(=O)Cc3ccccc3)C1(O)CCC2C1=CC(=O)OC1 (some centres not stated) | inactive: -1.88%
CC12CN3CC(C)(CN(C1)C31CCOCC1)C2=O | inactive: 17.4%
C[C@]12CC[C@@H](O)C[C@@H]1CC[C@@H]1[C@@H]2CC[C@]2(C)C(=O)CC[C@@H]12 | inactive: -4%

SMILES | growth inhibition
CC[C@]12C=CCN3CCC4(c5cc(Br)c(OC)cc5N(C)C4[C@@](O)(C(=O)OC)[C@@H]1OC(C)=O)C32 (some centres not stated) | inactive: -1.11%
CC(C)[C@@]1(NC(=O)[C@@H]2C[C@@H]3c4cccc5[nH]cc(c45)C[C@H]3N(C)C2)O[C@@]2(O)[C@@H]3CCCN3C(=O)[C@H](Cc3ccccc3)N2C1=O | inactive: 2.9%
CCOc1ccc(C2C(C#N)=C(N)Oc3c2c(=O)oc2ccccc32)cc1 (configuration not stated) | inactive: 5.8%
CC12CCC3C(CC=C4CC5(CCC43C)OCCO5)C1CCC2=O (configuration not stated) | inactive: -6.3%
CC(C)CC12CN3CCN(CC(C3)C1O)C2 (configuration not stated) | inactive: -2.34%
Nc1ccncc1 | inactive: 4.61%
C[N+]1(C)CCOC(O)(c2ccc(-c3ccc(C4(O)C[N+](C)(C)CCO4)cc3)cc2)C1 (configuration not stated) | inactive: 5.62%
C[C@]12CCC(=O)C=C1CC[C@@H]1[C@@H]2C(=O)C[C@]2(C)C(=O)CC[C@@H]12 | inactive: 4.64%
COc1ccc(C(=O)N2CCCC2=O)cc1 | inactive: -2.12%
O=C(O)CCCc1ccc(N(CCCl)CCCl)cc1 | inactive: 4.52%
CN1C(=O)N(C)C(=O)C2(Cc3ccccc3N3CCOCC32)C1=O (configuration not stated) | inactive: 6.46%
Cc1cc(Cl)ccc1OCC(=O)O | inactive: -5.95%
CCNC(=S)N(C)CCc1cc2c(c(OC)c1C=C1C(=O)N(C)C(=O)N(C)C1=O)OCO2 | inactive: 6.5%
COc1cc2c3cc1Oc1cc(ccc1O)C[C@@H]1c4c(cc(OC)c(O)c4Oc4ccc(cc4)C[C@H]3N(C)CC2)CCN1C | inactive: -1.85%
NNC(=O)c1ccc(Cl)cc1 | inactive: -2.65%
Clc1ccc(CSC(Cn2ccnc2)c2ccc(Cl)cc2Cl)cc1 (configuration not stated) | active: 95%
CCCC[N+]1(C)[C@@H]2CC(OC(=O)[C@H](CO)c3ccccc3)C[C@H]1[C@@H]1O[C@@H]12 (some centres not stated) | inactive: -5.17%
CC(CCc1ccccc1)NC(C)C(O)c1ccc(O)cc1 (configuration not stated) | inactive: -1.15%
O=C1CN=C(c2ccccc2F)c2cc(Cl)ccc2N1 | inactive: 3.26%

SMILES | growth inhibition
C[C@H](O)[C@H]1CC[C@H]2[C@@H]3CCC4=CC(=O)CC[C@]4(C)[C@H]3CC[C@]12C | inactive: 21.6%
CC(C)C[C@H](NC(=O)[C@@H]1CCCN1C(=O)[C@@H](N)Cc1ccc(O)cc1)C(=O)NCC(N)=O | inactive: 7.67%
COc1ccc(Cc2nccc3cc(OC)c(OC)cc23)cc1OC | inactive: 4.7%
CC1CCC[C@H](O)CCCCCc2cc(O)cc(O)c2C(=O)O1 (some centres not stated) | inactive: 5.1%
CN1C2CCC1CC(OC(=O)c1ccc(Cl)cc1)C2 (configuration not stated) | inactive: -6.17%
CC(C)(C)NCC(O)c1cc(Cl)c(N)c(Cl)c1 (configuration not stated) | inactive: 1.41%
CCOC(=O)c1cc2c(cn1)[nH]c1ccccc12 | inactive: 1.36%
COP(=S)(OC)SCN1C(=O)c2ccccc2C1=O | inactive: 0.176%
C[C@H]1CCC[C@H](O)CCCCCc2cc(O)cc(O)c2C(=O)O1 | inactive: -3.6%
COC1=CC(=O)OC(/C=C/c2ccccc2)C1 (configuration not stated) | inactive: -32.1%
Clc1ccc(C2NCCc3[nH]cnc32)cc1 (configuration not stated) | inactive: -3.96%
CC12CN3CC(C)(CN(C1)C3c1cccs1)C2O (configuration not stated) | inactive: 0.928%
CC(C)NC(C)C(=O)c1ccc2ccccc2c1 (configuration not stated) | inactive: -5.95%
CCN1CC2(COC(=O)c3ccccc3N)CCC(OC)C34C5CC6C(OC)CC(O)(C5C6OC)C(O)(C(OC)C23)C14 (configuration not stated) | inactive: -3.51%
COc1ccc(OC)c([C@@H](O)[C@H](C)NC(C)(C)C)c1 | inactive: -7.13%
NCCc1ccc(O)cc1 | inactive: -16.5%
C[N+]1(C)CCN(c2ccccc2)CC1 | inactive: 4.14%
COc1ccc2c3c([nH]c2c1)C(C)=NCC3 | inactive: 4.68%
C[C@@H]1O[C@@H](O[C@H]2C[C@@H](O)[C@]3(CO)[C@H]4[C@H](O)C[C@]5(C)[C@@H](C6=CC(=O)OC6)CC[C@]5(O)[C@@H]4CC[C@]3(O)C2)[C@H](O)[C@H](O)[C@H]1O | inactive: 5.88%

Source: PubChem BioAssay AID504594 (Broad Institute, 2011)
